From paper PMC12670160, “A drug-repurposing screen of FDA- and EMA-approved drugs identifies two NF-κB inhibitors active against eumycetoma” (Journal of Antimicrobial Chemotherapy, 2025)
Counter-ions that a name gives are not always drawn. Out of some 5,300 compounds screened, about 130 (2.5%) showed an effect of 50% or more. This is one part of the list.

tested on: M. mycetomatis strain mm55; conditions: primary screen, metabolic activity vs growth control; 96 h, 2 µM; inhibitor

Compared with `Cn1c(=O)c(F)c(Nc2ccc(I)cc2F)c2c(=O)n(C[C@@H](O)CO)cnc21` [ONC0004657, tak733], `CN(C)CCN1C(=O)c2cccc3cc(N)cc(c23)C1=O` [ONC0004718, amonafide] is higher in “% viability” value: 95.29% for the first, 128.3% for the second.

Going from `COc1ccc2c(NC(=O)Nc3cccc(C(F)(F)F)n3)ccnc2c1` [ONC0002529, a1070722] to `Cc1cc(NC(=O)Nc2ccc(F)c(F)c2)n(-c2ccccc2)n1` [ONC0001393, ml297], the “% viability” value rises from 76.76% to 113%.

Going from `COc1ccc2nc3cc(Cl)ccc3c(Nc3cc(CN4CCCC4)c(O)c(CN4CCCC4)c3)c2n1` [ONC0004161, pyronaridine tetraphosphate] to `COc1cc2c(NC3CCN(C4CCCCC4)CC3)nc(N3CCCN(C(C)C)CC3)nc2cc1OCCCN1CCCCC1` [ONC0000816, unc0646], the “% viability” value falls from 95.09% to 85.65%.

Going from `CO/N=C(\C(=O)N[C@@H]1C(=O)N2C(C(=O)O)=C(CSc3nc(C)c(CC(=O)O)s3)CS[C@H]12)c1csc(N)n1` [ONC0003298, cefodizime] to `COc1cccc2c1C(=O)c1c(O)c3c(c(O)c1C2=O)C[C@@](O)(/C(CO)=N/NC(=O)CCCCCN1C(=O)C=CC1=O)C[C@@H]3O[C@H]1C[C@H](N)[C@H](O)[C@H](C)O1` [ONC0000790, aldoxorubicin], the “% viability” value falls from 95.35% to 93.96%.

Compared with `CCCCCCCCCCCCCCCCO` [ONC0004836, 1hexadecanol], `CCCCOc1ccc(CC(=O)NO)cc1` [ONC0000683, bufexamac] is lower in “% viability” value: 111.6% for the first, 91.55% for the second.

First: CCN1/C(=C/C(C)=O)Sc2ccc(OC)cc21 [ONC0004814, tg003]
Second: CC(=O)c1ccc2c(c1)N(CCCN1CCN(CCO)CC1)c1ccccc1S2 [ONC0002454, acetophenazine maleate]
The “% viability” value of the first is lower: 98.43% for the first, 114.8% for the second.

Compared with `Cc1cc(C)cc(NC(=O)Cc2ccc(OC(C)(C)C(=O)O)cc2)c1` [ONC0004554, efaproxiral sodium], `Cc1c(CC(C)(C)C(=O)O)n(Cc2ccc(Cl)cc2)c2ccc(F)cc12` [ONC0003788, l655240] is lower in “% viability” value: 66.87% for the first, 57.6% for the second.

Going from `Cc1ccc(O)c([C@H](CCN(C(C)C)C(C)C)c2ccccc2)c1` [ONC0005209, tolterodine tartrate detrol la] to `CN(C)CCC(c1ccccc1)c1ccccn1` (centres unmarked) [ONC0000600, pheniramine maleate], the “% viability” value falls from 113.4% to 93.48%.

Compared with `Oc1c(Cl)cc(Cl)cc1Sc1cc(Cl)cc(Cl)c1O` [ONC0003234, bithionol], `O=C(O)c1cc(O)c(O)c(O)c1` [ONC0003325, gallic acid] is lower in “% viability” value: 107% for the first, 58.9% for the second.

First: C=CCc1ccccc1OCC(O)CNC(C)C (centres unmarked) [ONC0005361, alprenolol hydrochloride]
Second: CC(CCc1ccc(O)cc1)NCC(O)c1ccc(O)cc1 (centres unmarked) [ONC0004132, ractopamine hydrochloride]
The “% viability” value of the first is lower: 68.22% for the first, 105.5% for the second.

Going from `NC[C@H]1CC[C@H](C(=O)O)CC1` [ONC0000592, tranexamic acid] to `CC(=O)[C@H]1CC[C@H]2[C@@H]3CC=C4C[C@@H](OC(=O)CCC(=O)O)CC[C@]4(C)[C@H]3CC[C@]12C` [ONC0004082, pregnenolone succinate], the “% viability” value falls from 200.2% to 132.6%.

Going from `CN(C)c1ccc(/C=C2\C(=O)Nc3ccccc32)cc1` [ONC0001464, su4312] to `CCNC(=O)C#Cc1ccc2c(c1)NC(=O)/C2=C(/Nc1ccc(CN(C)C)cc1)c1ccccc1` [ONC0004535, bi847325], the “% viability” value rises from 70.21% to 77.83%.

Going from `C[C@@H]1COCCN1c1cc(C2(S(C)(=N)=O)CC2)nc(-c2ccnc3[nH]ccc23)n1` (some centres unmarked) [ONC0004545, azd6738] to `CCNC(C)CN1CCc2c(c(=O)oc3ccccc23)C1` (centres unmarked) [ONC0002199, ci923], the “% viability” value rises from 60.6% to 99.06%.

First: CCCN1C[C@@H](NS(=O)(=O)N(CC)CC)C[C@@H]2Cc3c(O)cccc3C[C@H]21 [ONC0000942, quinagolide hydrochloride]
Second: CCC(C)CNCC(=O)N1CCc2sccc2C1COc1cccc(C)c1 (centres unmarked) [ONC0000211, ruski43]
The “% viability” value of the first is lower: 65.37% for the first, 72.45% for the second.

First: O=C(O)c1cc(=O)c2c(OCC(O)COc3cccc4oc(C(=O)O)cc(=O)c34)cccc2o1 [ONC0000338, cromolyn sodium]
Second: COc1cc2c(cc1OC)CN(CCc1ccc(NC(=O)c3cccc4c(=O)c5cccc(OC)c5[nH]c34)cc1)CC2 [ONC0001070, elacridar]
The “% viability” value of the first is higher: 70.41% for the first, 58.72% for the second.

First: C[C@]12CC[C@@H](O)C[C@@H]1CC[C@@H]1[C@@H]2CC[C@]2(C)C(c3ccccc3)=CC[C@@H]12 [ONC0001294, 17pa]
Second: CC(C)CCC[C@@H](C)[C@H]1CC[C@H]2[C@@H]3CC=C4C[C@@H](O)CC[C@]4(C)[C@H]3CC[C@]12C [ONC0003909, cholesterol]
The “% viability” value of the first is lower: 69.25% for the first, 75.66% for the second.

First: CS(=O)(=O)c1ccc(Cn2c3c(c4cc(F)cc(F)c42)CCCC3CC(=O)O)cc1 (centres unmarked) [ONC0000044, l670596]
Second: CCc1cc(/C(C)=N/OCc2ccc(C3CCCCC3)c(C(F)(F)F)c2)ccc1CN1CC(C(=O)O)C1 [ONC0004388, baf312 siponimod]
The “% viability” value of the first is higher: 95.88% for the first, 88.46% for the second.

Compared with `Cc1c(Cl)cccc1S(=O)(=O)Nc1nc(NCCc2ccccc2)nc2c1CN(Cc1ccccc1)CC2` [ONC0000758, camkiiin1], `CCCCc1nn(-c2ccccc2C(F)(F)F)c(=O)n1Cc1ccc(-c2ccccc2S(=O)(=O)NC(=O)c2sccc2C)cc1` [ONC0003621, l161982] is lower in “% viability” value: 78.86% for the first, 69.37% for the second.

Compared with `O=C1NC(c2ccccc2)(c2ccccc2)C(=O)N1COP(=O)(O)O` [ONC0003342, fosphenytoin disodium salt hydrate], `CCN(CCCc1ccccc1)CCCc1ccccc1` [ONC0000319, alverine citrate] is lower in “% viability” value: 79.09% for the first, 77.24% for the second.

Compared with `O[C@@H]1CO[C@H]2[C@@H]1OC[C@@H]2O` [ONC0001193, isosorbide], `CCOc1ccc(Cc2cc([C@@H]3O[C@H](CO)[C@@H](O)[C@H](O)[C@H]3O)ccc2Cl)cc1` [ONC0005314, dapagliflozin] is lower in “% viability” value: 79.02% for the first, 78.54% for the second.

First: COc1cc2c(NC3CCN(C)CC3)nc(N3CCCN(C)CC3)nc2cc1OCCOCCN(C)C [ONC0002054, unc0321]
Second: CCSc1ccc2c(c1)N(CCCN1CCN(C)CC1)c1ccccc1S2 [ONC0002904, thiethylperazine]
The “% viability” value of the first is lower: 65.32% for the first, 105.9% for the second.

Compared with `Cc1cccc(Nc2nc(-c3ccncc3)cs2)c1` [ONC0004714, stf62247], `Cc1cccc(Oc2cnc(=O)[nH]c2)c1` [ONC0003488, tolimidone mlr 1023] is lower in “% viability” value: 102.8% for the first, 59.01% for the second.

Compared with `O=C(CN1CCN(Cc2ccc3c(c2)OCO3)CC1)N1c2ccccc2Sc2ccccc21` [ONC0003446, fenoverine], `O=[N+]([O-])c1cc(Cl)ccc1S(=O)(=O)N1CCN(Cc2ccccc2)CC1` [ONC0001663, rn1747] is lower in “% viability” value: 80.33% for the first, 65.37% for the second.

Going from `Cc1c(O)cccc1C(=O)N[C@@H](CSc1ccccc1)[C@H](O)CN1C[C@H]2CCCC[C@H]2C[C@H]1C(=O)NC(C)(C)C` [ONC0003474, nelfinavir mesylate] to `C[C@@H](C1=C(CCN(C)C)Cc2ccccc21)c1ccccn1` [ONC0001632, dimethindenes], the “% viability” value rises from 57.61% to 75.79%.

First: CCN(CC)C(=O)N1CCN(C)CC1 [ONC0000626, diethylcarbamazine citrate]
Second: CCOc1nc2c(N)ncnc2n1CC [ONC0001622, anr94]
The “% viability” value of the first is higher: 119.6% for the first, 89.68% for the second.

Compared with `CCCCC#Cc1nc(NC)c2ncn([C@@H]3O[C@H](CO)[C@@H](O)[C@H]3O)c2n1` [ONC0002716, hemado], `CC[C@H](CC[C@@H](C)[C@H]1CC[C@H]2[C@@H]3CC=C4C[C@@H](O[C@@H]5O[C@H](CO)[C@@H](O)[C@H](O)[C@H]5O)CC[C@]4(C)[C@H]3CC[C@]12C)C(C)C` [ONC0002029, daucosterol] is lower in “% viability” value: 66.82% for the first, 64.15% for the second.

Compared with `CCC(O)(CC(N)=O)c1ccccc1` (centres unmarked) [ONC0003599, 3hydroxy3phenylpentanamide], `O=P(O)(O)C(O)(Cc1cccnc1)P(=O)(O)O` [ONC0004012, risedronate sodium] is lower in “% viability” value: 105.2% for the first, 69.35% for the second.

First: O=C(Nc1ccc2c(O)cc(S(=O)(=O)O)cc2c1)Nc1ccc2c(O)cc(S(=O)(=O)O)cc2c1 [ONC0003636, disodium 77carbonyldiiminobis4hydroxy2naphthalenesulfonate]
Second: COc1ccc(-n2nc(CCC(=O)N(C)O)cc2-c2ccc(Cl)cc2)cc1 [ONC0002438, tepoxalin]
The “% viability” value of the first is lower: 82.53% for the first, 104.2% for the second.

Compared with `Cc1c(C)c2c(c(C)c1O)CC[C@@](C)(CCC[C@H](C)CCC[C@H](C)CCCC(C)C)O2` [ONC0002903, vitamine], `C=C[C@@]1(C)CC(=O)[C@]2(O)[C@@]3(C)[C@@H](O)CCC(C)(C)[C@@H]3[C@H](OC(=O)CCN(C)C)[C@H](OC(C)=O)[C@@]2(C)O1` [ONC0002915, colforsindaproate] is higher in “% viability” value: 81.8% for the first, 95.97% for the second.

With `CC(C)(C)C(O)/C=C/c1ccc2c(c1)OCO2` (centres unmarked) [ONC0005463, stiripentol] the “% viability” value was 84.93%.
